Measurements taken from patent US12390473B2, “Methods of treating tyrosine kinase inhibitor-induced diarrhea” (THE REGENTS OF THE UNIVERSITY OF CALIFORNIA, priority 2019, dated 2025).

System: cAMP-activated K+ channels
Test: Inhibition of forskolin-induced short-circuit current in T84 cells (FIG. 11B)
Type: cell-based, human
Conditions: 10 μM forskolin

Clc1ccccc1C(c1ccccc1)(c1ccccc1)n1ccnc1 [clotrimazole] was tested, and the “IC50 for inhibition of cAMP-dependent basolateral K+ conductance” value was “low micromolar”.
